PubChem BioAssay AID493246 – Drosophila RNAi Screening Center, 2011
In all, the deposit lists about 21,000 reagents; this is a random part of those that have a named target and a result. Of all reagents, 429 (2%) got an active call. 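Values are raw and not normalised between plates; calls rest on per-plate z-scores that were not deposited.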 No sequences are given here. Not stated in the record: the amount of reagent, the time to read-out.

Aim: 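Genes fly cells need to grow and stay alive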 (primary screen)
System: Drosophila Kc and S2R+ cells
Reagent: long dsRNA against Drosophila genes
Read-out: 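Raw, unnormalised count of remaining cells in each well; per-plate z-scores of cell number underlie the calls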
Reading the numbers: Kc cell number and S2R+ cell number: higher = more cells remaining
Hit rule: 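Counted as a hit if cell number falls by a z-score of at least 3 within its plate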

{"Gene": "eIF4A", "Kc cell number, rep 1": 1.02e6, "Kc cell number, rep 2": 8.10e5, "S2R+ cell number, rep 1": 5.77e5, "S2R+ cell number, rep 2": 7.06e5, "Call": "active"}
{"Gene": "CG40282 (retired record)", "Kc cell number, rep 1": 1.31e6, "Kc cell number, rep 2": 1.30e6, "S2R+ cell number, rep 1": 9.09e5, "S2R+ cell number, rep 2": 1.08e6, "Call": "inactive"}
{"Gene": "Camp", "Kc cell number, rep 1": 1.50e6, "Kc cell number, rep 2": 1.56e6, "S2R+ cell number, rep 1": 1.18e6, "S2R+ cell number, rep 2": 1.27e6, "Call": "inactive"}
{"Gene": "alpha-Est6", "Kc cell number, rep 1": 1.60e6, "Kc cell number, rep 2": 1.58e6, "S2R+ cell number, rep 1": 1.17e6, "S2R+ cell number, rep 2": 1.27e6, "Call": "inactive"}
{"Gene": "Gnptab", "Kc cell number, rep 1": 1.53e6, "Kc cell number, rep 2": 1.63e6, "S2R+ cell number, rep 1": 1.41e6, "S2R+ cell number, rep 2": 1.49e6, "Call": "inactive"}
{"Gene": "COX5A", "Kc cell number, rep 1": 1.40e6, "Kc cell number, rep 2": 1.48e6, "S2R+ cell number, rep 1": 1.05e6, "S2R+ cell number, rep 2": 1.17e6, "Call": "inactive"}
{"Gene": "Fife", "Kc cell number, rep 1": 1.26e6, "Kc cell number, rep 2": 1.39e6, "S2R+ cell number, rep 1": 1.10e6, "S2R+ cell number, rep 2": 1.02e6, "Call": "inactive"}
{"Gene": "CG31313", "Kc cell number, rep 1": 1.35e6, "Kc cell number, rep 2": 1.57e6, "S2R+ cell number, rep 1": 8.63e5, "S2R+ cell number, rep 2": 1.05e6, "Call": "inactive"}
{"Gene": "CG15353", "Kc cell number, rep 1": 1.33e6, "Kc cell number, rep 2": 1.30e6, "S2R+ cell number, rep 1": 1.02e6, "S2R+ cell number, rep 2": 1.14e6, "Call": "inactive"}
{"Gene": "CG31109", "Kc cell number, rep 1": 1.50e6, "Kc cell number, rep 2": 1.60e6, "S2R+ cell number, rep 1": 9.31e5, "S2R+ cell number, rep 2": 1.06e6, "Call": "inactive"}
{"Gene": "CG8774", "Kc cell number, rep 1": 1.55e6, "Kc cell number, rep 2": 1.61e6, "S2R+ cell number, rep 1": 1.26e6, "S2R+ cell number, rep 2": 1.29e6, "Call": "inactive"}
{"Gene": "sw", "Kc cell number, rep 1": 1.19e6, "Kc cell number, rep 2": 1.38e6, "S2R+ cell number, rep 1": 1.04e6, "S2R+ cell number, rep 2": 1.14e6, "Call": "inactive"}

Only “S2R+ cell number, rep 2”, for 2 of the entries above:
CG31109: 1.06e6
CG8774: 1.29e6
